One protein from PMC4245983 can be followed below.

Broadly, the Km is the substrate concentration at which the rate is half of its maximum.

Substrate in this data set: Nc1ncnc2c1ncn2[C@@H]1O[C@H](COP(=O)(O)OP(=O)(O)OP(=O)(O)O)[C@@H](O)[C@H]1O
The data set can be described thus: Steady-state ATPase assay with the enzyme-coupled EnzChek phosphate kit. The format is biochemical. The following applies: pH 7.3; 25.0 °C.

B1: HscA386 (Escherichia coli K-12) (protein)
chain: MALLQISEPGLSAAPHQRRLAAGIDLGTTNSLVATVRSGQAETLADHEGRHLLPSVVHYQQQGHSVGYDARTNAALDTANTISSVKRLMGRSLADIQQRYPHLPYQFQASENGLPMIETAAGLLNPVRVSADILKALAARATEALAGELDGVVITVPAYFDDAQRQGTKDAARLAGLHVLRLLNEPTAAAIAYGLDSGQEGVIAVYDLGGGTFDISILRLSRGVFEVLATGGDSALGGDDFDHLLADYIREQAGIPDRSDNRVQRELLDAAIAAKIALSDADSVTVNVAGWQGEISREQFNELIAPLVKRTLLACRRALKDAGVEADEVLEVVMVGGSTRVPLVRERVGEFFGRPPLTSIDPDKVVAIGAAIQADILVGNKPDSEM
On to B1, for which the Km turned out to be 21.4 µM.
